{
  "source": "patent US6806240B1",
  "about": "“Conveyor lubricant, passivation of a thermoplastic container to stress cracking, and thermoplastics stress crack inhibitor” (Ecolab Inc., priority 2002, dated 2004)",
  "experiment": "Lubricity test, glass-on stainless steel",
  "data": [
    {"smiles": "CCCCCCCCCCCCCCCCCCCCCC(=O)O", "note": "[Behenic acid, behenic acid]", "values": [
      {"measurement": "Rel COF", "setting": "drag force (sample)/drag force (reference)", "result": 1.000},
      {"measurement": "Drag force (average)", "setting": "samples 100% or as indicated, references 0.1% by weight in water", "result": 28.0, "unit": "g"}
    ]}
  ]
}
